Consider 2 substances from patent publication EP0450461B1 (The Administrators of The Tulane Educational Fund, priority 1990, dated 1991).

A short description of this data set: general procedure: Boc solid-phase peptide synthesis; benzhydrylamine HCl resin, about 1 meq NH2/g (Advanced ChemTech). To be noted: whole synthesis, TFA salt.

Square brackets hold non-standard residues; d marks the D form. dPhe(4-Cl) = N[C@H](Cc1ccc(Cl)cc1)C(=O)O; d2Nal = N[C@H](Cc1ccc2ccccc2c1)C(=O)O; d3Pal = N[C@H](Cc1cccnc1)C(=O)O

On to “Ac-D-Nal(2)-D-Phe(4Cl)-D-Trp-Ser-Arg-D-Lys(A₂pr)-Leu-Arg-Pro-D-Ala-NH₂”, for which, for the setting “analytical HPLC, solvent system i, linear gradient”, the “final HPLC purity” value was greater than 95%. With “Ac-[d2Nal][dPhe(4-Cl)][d3Pal]SR[dK]LRP[dA]-NH2”, the crude mass (scale 0.5 g resin, about 0.5 mmole) was found to be 540 mg.
